Some of the results follow.

Sequences of proteins named here, by UniProt entry; tags and fusion partners are left off. A change or cut given only in a name is not applied to a line headed by its entry.
UniProt Q9H8H3: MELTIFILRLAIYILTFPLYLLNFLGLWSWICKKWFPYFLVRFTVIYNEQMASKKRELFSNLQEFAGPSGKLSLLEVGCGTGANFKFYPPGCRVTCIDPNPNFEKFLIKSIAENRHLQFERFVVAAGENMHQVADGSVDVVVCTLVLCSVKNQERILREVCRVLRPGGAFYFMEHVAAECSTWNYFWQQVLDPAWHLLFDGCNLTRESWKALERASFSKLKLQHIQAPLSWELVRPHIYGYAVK
UniProt P33992: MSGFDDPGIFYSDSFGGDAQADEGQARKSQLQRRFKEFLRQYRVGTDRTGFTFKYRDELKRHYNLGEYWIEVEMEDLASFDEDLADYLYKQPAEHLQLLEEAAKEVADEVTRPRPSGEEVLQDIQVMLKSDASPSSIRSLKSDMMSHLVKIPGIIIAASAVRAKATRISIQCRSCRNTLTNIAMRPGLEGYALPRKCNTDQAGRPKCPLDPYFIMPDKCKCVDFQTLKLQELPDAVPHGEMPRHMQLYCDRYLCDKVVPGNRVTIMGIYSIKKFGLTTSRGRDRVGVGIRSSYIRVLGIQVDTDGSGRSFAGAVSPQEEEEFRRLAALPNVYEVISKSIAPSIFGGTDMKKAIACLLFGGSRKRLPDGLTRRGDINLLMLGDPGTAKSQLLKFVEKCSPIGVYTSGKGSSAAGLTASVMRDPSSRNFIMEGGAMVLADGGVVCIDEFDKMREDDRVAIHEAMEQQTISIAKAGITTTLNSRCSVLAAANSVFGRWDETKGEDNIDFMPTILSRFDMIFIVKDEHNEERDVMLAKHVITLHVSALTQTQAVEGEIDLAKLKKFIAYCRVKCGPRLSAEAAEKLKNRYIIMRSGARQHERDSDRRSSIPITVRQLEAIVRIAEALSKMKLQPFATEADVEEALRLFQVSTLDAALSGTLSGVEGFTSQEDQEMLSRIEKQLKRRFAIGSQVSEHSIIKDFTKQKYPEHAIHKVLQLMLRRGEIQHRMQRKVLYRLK
UniProt Q9NRN9: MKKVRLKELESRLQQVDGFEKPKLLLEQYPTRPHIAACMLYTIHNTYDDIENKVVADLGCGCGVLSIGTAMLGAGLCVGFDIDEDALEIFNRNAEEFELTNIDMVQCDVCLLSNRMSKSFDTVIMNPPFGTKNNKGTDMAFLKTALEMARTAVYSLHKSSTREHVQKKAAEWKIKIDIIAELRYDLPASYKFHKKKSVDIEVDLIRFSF
UniProt Q8WXB1: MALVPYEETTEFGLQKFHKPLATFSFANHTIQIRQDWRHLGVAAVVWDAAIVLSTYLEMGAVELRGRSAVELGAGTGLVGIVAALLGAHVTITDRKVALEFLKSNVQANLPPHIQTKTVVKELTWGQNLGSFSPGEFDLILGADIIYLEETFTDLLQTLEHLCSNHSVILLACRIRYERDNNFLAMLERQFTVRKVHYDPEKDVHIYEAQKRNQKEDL
UniProt P25205: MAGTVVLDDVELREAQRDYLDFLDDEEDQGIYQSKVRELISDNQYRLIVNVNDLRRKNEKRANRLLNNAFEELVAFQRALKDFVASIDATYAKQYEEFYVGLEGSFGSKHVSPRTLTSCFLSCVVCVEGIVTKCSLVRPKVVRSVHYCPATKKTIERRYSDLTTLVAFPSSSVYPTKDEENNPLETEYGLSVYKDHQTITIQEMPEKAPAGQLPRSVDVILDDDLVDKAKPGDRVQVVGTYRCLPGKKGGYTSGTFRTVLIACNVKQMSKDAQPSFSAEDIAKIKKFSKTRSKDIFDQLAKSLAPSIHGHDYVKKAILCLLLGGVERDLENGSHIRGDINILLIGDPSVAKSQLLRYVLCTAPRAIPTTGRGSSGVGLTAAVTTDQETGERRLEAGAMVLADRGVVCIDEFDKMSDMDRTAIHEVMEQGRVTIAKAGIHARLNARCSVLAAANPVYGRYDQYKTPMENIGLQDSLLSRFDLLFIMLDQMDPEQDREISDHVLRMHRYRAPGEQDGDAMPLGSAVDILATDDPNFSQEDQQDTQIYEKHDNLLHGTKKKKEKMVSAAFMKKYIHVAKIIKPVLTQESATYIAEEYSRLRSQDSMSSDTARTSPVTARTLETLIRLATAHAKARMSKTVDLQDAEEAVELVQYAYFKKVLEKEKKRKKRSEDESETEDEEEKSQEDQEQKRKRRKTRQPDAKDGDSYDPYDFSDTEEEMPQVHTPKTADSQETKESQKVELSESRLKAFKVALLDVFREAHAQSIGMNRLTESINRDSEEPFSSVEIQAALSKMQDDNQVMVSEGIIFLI
UniProt Q9BUE0: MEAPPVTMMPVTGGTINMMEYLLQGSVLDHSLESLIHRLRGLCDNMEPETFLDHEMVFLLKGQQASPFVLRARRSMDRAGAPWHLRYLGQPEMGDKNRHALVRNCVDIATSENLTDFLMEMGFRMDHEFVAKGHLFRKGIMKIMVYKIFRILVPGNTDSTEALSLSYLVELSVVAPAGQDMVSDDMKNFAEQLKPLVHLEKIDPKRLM
UniProt Q96RQ3: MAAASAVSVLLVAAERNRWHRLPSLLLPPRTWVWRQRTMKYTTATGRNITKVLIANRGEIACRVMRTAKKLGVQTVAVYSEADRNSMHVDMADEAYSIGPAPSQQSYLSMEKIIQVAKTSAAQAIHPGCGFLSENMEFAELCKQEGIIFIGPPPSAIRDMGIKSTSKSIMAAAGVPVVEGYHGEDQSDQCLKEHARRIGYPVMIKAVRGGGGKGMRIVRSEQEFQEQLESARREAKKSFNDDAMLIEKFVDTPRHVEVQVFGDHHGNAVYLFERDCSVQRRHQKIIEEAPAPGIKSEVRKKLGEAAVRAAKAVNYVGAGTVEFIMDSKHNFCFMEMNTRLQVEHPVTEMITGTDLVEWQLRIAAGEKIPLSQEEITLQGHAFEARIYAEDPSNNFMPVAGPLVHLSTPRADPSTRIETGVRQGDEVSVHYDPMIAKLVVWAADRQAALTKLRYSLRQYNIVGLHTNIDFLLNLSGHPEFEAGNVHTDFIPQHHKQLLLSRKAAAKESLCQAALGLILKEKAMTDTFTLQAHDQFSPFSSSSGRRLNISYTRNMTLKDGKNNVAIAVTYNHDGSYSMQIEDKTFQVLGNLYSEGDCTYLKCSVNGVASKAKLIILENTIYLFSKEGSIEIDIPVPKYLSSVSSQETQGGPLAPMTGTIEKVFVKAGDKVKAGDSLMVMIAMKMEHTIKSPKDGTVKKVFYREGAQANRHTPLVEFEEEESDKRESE
UniProt Q9UQ53: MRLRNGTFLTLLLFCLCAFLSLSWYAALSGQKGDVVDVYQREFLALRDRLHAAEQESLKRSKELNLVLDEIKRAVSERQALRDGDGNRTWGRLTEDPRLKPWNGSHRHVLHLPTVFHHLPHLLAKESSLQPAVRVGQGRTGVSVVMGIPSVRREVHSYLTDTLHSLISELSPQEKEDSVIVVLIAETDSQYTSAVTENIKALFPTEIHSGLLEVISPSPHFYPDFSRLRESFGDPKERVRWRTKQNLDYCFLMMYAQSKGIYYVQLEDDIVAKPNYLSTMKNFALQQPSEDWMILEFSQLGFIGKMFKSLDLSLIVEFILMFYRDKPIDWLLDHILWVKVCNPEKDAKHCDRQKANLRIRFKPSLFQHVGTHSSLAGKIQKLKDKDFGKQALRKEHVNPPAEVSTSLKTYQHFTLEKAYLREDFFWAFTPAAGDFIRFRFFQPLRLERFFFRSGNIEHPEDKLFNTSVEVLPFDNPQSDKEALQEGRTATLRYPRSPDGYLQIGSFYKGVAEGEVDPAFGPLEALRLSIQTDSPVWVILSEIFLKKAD
UniProt Q14728: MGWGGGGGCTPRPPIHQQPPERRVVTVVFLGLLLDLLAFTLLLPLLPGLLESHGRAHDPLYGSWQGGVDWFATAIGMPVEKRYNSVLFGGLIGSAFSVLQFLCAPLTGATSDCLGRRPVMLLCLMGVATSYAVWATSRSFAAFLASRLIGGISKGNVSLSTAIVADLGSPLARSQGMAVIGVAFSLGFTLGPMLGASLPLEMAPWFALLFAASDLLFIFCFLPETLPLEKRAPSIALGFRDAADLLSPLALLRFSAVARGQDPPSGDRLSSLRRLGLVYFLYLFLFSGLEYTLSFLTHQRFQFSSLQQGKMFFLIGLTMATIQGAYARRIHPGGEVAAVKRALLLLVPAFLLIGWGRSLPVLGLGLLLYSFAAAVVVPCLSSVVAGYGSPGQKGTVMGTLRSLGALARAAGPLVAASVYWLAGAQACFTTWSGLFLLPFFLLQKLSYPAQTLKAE
UniProt O14880: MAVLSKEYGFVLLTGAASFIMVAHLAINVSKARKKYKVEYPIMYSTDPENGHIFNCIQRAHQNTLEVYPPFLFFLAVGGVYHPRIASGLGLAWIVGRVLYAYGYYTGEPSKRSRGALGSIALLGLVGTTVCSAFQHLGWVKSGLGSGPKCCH
UniProt P50579: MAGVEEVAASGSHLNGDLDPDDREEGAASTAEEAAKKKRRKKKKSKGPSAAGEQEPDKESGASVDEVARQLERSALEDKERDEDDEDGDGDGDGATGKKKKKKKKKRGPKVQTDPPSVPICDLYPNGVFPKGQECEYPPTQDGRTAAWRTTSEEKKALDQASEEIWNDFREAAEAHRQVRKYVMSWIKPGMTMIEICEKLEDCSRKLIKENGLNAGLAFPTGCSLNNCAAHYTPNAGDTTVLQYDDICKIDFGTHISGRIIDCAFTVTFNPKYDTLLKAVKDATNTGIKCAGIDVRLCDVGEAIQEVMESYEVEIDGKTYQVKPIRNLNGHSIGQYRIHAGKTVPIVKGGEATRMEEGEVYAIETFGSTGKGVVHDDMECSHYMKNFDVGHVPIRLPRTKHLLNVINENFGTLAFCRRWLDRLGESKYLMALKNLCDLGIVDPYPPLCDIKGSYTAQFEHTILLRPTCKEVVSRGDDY
UniProt Q9BUT9: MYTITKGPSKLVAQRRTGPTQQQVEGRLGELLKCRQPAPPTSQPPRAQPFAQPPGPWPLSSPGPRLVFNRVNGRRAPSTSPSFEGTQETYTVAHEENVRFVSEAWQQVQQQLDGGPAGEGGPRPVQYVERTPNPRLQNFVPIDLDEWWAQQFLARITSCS
UniProt O95983: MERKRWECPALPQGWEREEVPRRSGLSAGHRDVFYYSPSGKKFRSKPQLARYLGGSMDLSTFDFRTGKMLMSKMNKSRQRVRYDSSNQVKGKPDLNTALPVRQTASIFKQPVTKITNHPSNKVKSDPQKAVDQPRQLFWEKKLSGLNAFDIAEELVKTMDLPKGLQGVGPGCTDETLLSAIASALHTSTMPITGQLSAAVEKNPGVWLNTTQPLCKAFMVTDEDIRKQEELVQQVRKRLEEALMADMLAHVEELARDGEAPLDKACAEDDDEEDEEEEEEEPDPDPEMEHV
UniProt Q96RN5: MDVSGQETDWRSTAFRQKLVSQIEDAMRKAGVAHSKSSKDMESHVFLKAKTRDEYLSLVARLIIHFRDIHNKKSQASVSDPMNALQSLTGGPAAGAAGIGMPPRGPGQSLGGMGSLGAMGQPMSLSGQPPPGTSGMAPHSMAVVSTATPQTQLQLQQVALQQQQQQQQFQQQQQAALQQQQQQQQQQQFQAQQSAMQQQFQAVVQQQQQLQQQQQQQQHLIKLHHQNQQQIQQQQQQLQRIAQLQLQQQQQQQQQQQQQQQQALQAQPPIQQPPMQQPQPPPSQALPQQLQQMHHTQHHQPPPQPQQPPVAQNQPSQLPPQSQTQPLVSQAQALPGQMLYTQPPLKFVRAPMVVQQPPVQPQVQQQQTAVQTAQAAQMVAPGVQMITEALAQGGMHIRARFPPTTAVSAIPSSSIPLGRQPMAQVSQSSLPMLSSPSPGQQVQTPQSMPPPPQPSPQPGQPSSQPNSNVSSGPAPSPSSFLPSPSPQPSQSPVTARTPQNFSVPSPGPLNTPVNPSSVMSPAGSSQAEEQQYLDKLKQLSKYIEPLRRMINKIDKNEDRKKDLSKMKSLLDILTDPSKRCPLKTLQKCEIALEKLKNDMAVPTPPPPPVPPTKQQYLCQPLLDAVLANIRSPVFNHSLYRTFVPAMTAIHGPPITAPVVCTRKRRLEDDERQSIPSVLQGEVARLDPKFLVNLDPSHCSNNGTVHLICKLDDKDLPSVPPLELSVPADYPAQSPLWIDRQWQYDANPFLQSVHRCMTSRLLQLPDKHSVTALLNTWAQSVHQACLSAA
UniProt Q9BTT4: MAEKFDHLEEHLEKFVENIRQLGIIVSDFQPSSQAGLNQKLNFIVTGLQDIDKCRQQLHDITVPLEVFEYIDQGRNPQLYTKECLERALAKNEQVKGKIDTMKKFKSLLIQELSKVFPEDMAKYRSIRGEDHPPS
UniProt Q6P1Q9: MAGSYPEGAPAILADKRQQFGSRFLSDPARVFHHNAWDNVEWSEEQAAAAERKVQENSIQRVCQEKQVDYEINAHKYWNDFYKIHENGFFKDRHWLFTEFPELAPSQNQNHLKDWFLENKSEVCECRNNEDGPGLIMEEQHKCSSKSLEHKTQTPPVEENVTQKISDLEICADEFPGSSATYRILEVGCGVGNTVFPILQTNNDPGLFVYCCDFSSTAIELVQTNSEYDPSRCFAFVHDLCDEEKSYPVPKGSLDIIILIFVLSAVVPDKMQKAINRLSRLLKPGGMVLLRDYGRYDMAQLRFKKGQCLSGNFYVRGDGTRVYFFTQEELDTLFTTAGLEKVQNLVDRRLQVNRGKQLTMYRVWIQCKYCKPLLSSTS

The record followed here is the supplement of paper PMC10849652.

Compound in the first experiment: Cn1cncc1[C@@](N)(c1ccc(Cl)cc1)c1ccc2c(c1)c(-c1cccc(Cl)c1)cc(=O)n2C [tipifarnib]
As to the kind of experiment: log2 fold change, soluble protein after heating vs DMSO (PISA); higher = thermal stabilisation; K562 cells, 10 uM, 30 min; active = over 0.2 and 3.5 SD of the protein, either way, in both replicates (recomputed). Put shortly: (§1)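 K562 cells (2×10^6 cells/mL) were treated with 10 μM compound for 30 min, and aliquots were heated for 3 min over 48°C-58°C. Pooled aliquots were extracted in PBS with 0.5% NP-40 at 4°C, and the supernatant after 21,000xg for 90 min was measured by TMTpro 16plex LC-MS/MS with channel sums equalised. Reported thermal stability, relative to control samples and from duplicates, is a log2 fold change.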
Take MCM2 (UniProt P49736): the log2 fold change was inactive: -0.026. Same read-out and setting: the value for MESD (UniProt Q14696) was inactive: 0.053; that for MCRIP1 (UniProt I3L4Q0) was inactive: 0.028; that for MDN1 (UniProt Q9NU22) was inactive: -0.052. The same measure, in the same setting: the value for MED23 (UniProt Q9ULK4) was inactive: -0.09; that for METTL7A (UniProt Q9H8H3) was inactive: 0.035; that for MCM5 (UniProt P33992) was inactive: -0.007.

Regarding METTL5 (UniProt Q9NRN9), the log2 fold change is inactive: 0.006.

As to MECR (UniProt Q9BV79), the log2 fold change is inactive: 0.005. For the target MBOAT1 (UniProt Q6ZNC8), the log2 fold change was inactive: -0.026. Turning to MEF2C isoform 5 (UniProt Q06413), the log2 fold change is inactive: 0.167.

As to MAT2B (UniProt Q9NZL9), the log2 fold change is inactive: 0.025.

For METTL21A (UniProt Q8WXB1), the log2 fold change was inactive: -0.131. Still for that read-out and setting: the value for MERTK (UniProt Q12866) was inactive: 0.039; that for MCM3 isoform 2 (UniProt P25205) was inactive: -0.019. The same measure, in the same setting: the value for MCCC2 (UniProt Q9HCC0) was inactive: -0.005. For the target MED30 (UniProt Q96HR3), the log2 fold change is inactive: 0.001. Still for that read-out and setting: the value for METTL6 (UniProt Q8TCB7) was inactive: 0.114; that for MED18 (UniProt Q9BUE0) was inactive: -0.006. Still for that read-out and setting: the value for MFAP1 (UniProt P55081) was inactive: 0.014.

With MCCC1 (UniProt Q96RQ3), the log2 fold change is inactive: -0.126. Same read-out and setting: the value for MGAT4B isoform 3 (UniProt Q9UQ53) was inactive: 0.163; that for MED14 (UniProt O60244) was inactive: 0.045; that for MFSD10 (UniProt Q14728) was inactive: 0.053. For the target METAP1 (UniProt P53582), the log2 fold change was inactive: 0.05.

Consider MGST3 (UniProt O14880), for which the log2 fold change was inactive: 0.019. For the target METAP2 (UniProt P50579), the log2 fold change is inactive: 0.048. Take MCRIP2 (UniProt Q9BUT9): the log2 fold change was inactive: 0.088. As to MBNL1 (UniProt Q9NR56), the log2 fold change was inactive: 0.058.

As to MEAF6 isoform 3 (UniProt Q9HAF1), the log2 fold change is inactive: 0.054. With MFSD14B (UniProt Q5SR56), the log2 fold change is inactive: 0.148. Still for that read-out and setting: the value for MBD3 (UniProt O95983) was inactive: 0.027; that for MED15 (UniProt Q96RN5) was inactive: 0.048; that for MED24 (UniProt O75448) was inactive: 0.206. Still for that read-out and setting: the value for MEF2D (UniProt Q14814) was inactive: 0.013; that for METTL25 (UniProt Q8N6Q8) was inactive: 0.143. Take MED10 (UniProt Q9BTT4): the log2 fold change was inactive: 0.156.

Compound in another experiment: FC(F)(F)c1ccc(/C=C/c2nc(COc3ccc(CCCCn4ccnn4)cc3)co2)cc1 [mubritinib]
Described as above. Put shortly: as §1
Consider MIB1 (UniProt Q86YT6), for which the log2 fold change is inactive: -0.005. Still for that read-out and setting: the value for MCM2 (UniProt P49736) was inactive: 0.049; that for MESD (UniProt Q14696) was inactive: 0.013; that for MCRIP1 (UniProt I3L4Q0) was inactive: 0.018.

For MDN1 (UniProt Q9NU22), the log2 fold change was inactive: -0.089. Same read-out and setting: the value for MED23 (UniProt Q9ULK4) was inactive: 0.084. On the same count and under the same terms, the value for METTL7A (UniProt Q9H8H3) was inactive: 0.025; that for MCM5 (UniProt P33992) was inactive: 0.009. On to METTL5 (UniProt Q9NRN9), for which the log2 fold change was inactive: 0.063. Same read-out and setting: the value for MECR (UniProt Q9BV79) was inactive: -0.033; that for METTL2B (UniProt Q6P1Q9) was inactive: 0.072; that for MEF2C isoform 5 (UniProt Q06413) was inactive: 0.023. Same read-out and setting: the value for MAT2B (UniProt Q9NZL9) was inactive: 0.04; that for METTL21A (UniProt Q8WXB1) was inactive: 0.051.

On to MERTK (UniProt Q12866), for which the log2 fold change is inactive: 0.156. Still for that read-out and setting: the value for MCM3 isoform 2 (UniProt P25205) was inactive: -0.002. Still for that read-out and setting: the value for MCCC2 (UniProt Q9HCC0) was inactive: -0.015; that for MED30 (UniProt Q96HR3) was inactive: 0.072; that for METTL6 (UniProt Q8TCB7) was inactive: 0.031. On the same count and under the same terms, the value for MED18 (UniProt Q9BUE0) was inactive: 0.041; that for MFAP1 (UniProt P55081) was inactive: -0.021; that for MCCC1 (UniProt Q96RQ3) was inactive: 0.051. For the target MGAT4B isoform 3 (UniProt Q9UQ53), the log2 fold change is inactive: -0.178. As for MED14 (UniProt O60244), the log2 fold change is inactive: 0.036.

Regarding MFSD10 (UniProt Q14728), the log2 fold change is inactive: 0.104. For METAP1 (UniProt P53582), the log2 fold change was inactive: -0.003. On the same count and under the same terms, the value for MGST3 (UniProt O14880) was inactive: -0.094; that for METAP2 (UniProt P50579) was inactive: 0.059; that for MBNL1 (UniProt Q9NR56) was inactive: -0.001. Still for that read-out and setting: the value for MEAF6 isoform 3 (UniProt Q9HAF1) was inactive: 0.032.

Turning to MFSD14B (UniProt Q5SR56), the log2 fold change was inactive: 0.028. Still for that read-out and setting: the value for MBD3 (UniProt O95983) was inactive: -0.002; that for MED15 (UniProt Q96RN5) was inactive: 0.081; that for MED24 (UniProt O75448) was inactive: 0.031. The same measure, in the same setting: the value for MEF2D (UniProt Q14814) was inactive: 0.007; that for METTL25 (UniProt Q8N6Q8) was inactive: 0.085. The same measure, in the same setting: the value for MED10 (UniProt Q9BTT4) was inactive: 0.005.
